Laboratory results reported in publication PMC7862700.
Some of the results follow. The exact form of the protein is not confirmed.

Biological target: T1, ELF2 (UniProt Q15723)
T1 sequence: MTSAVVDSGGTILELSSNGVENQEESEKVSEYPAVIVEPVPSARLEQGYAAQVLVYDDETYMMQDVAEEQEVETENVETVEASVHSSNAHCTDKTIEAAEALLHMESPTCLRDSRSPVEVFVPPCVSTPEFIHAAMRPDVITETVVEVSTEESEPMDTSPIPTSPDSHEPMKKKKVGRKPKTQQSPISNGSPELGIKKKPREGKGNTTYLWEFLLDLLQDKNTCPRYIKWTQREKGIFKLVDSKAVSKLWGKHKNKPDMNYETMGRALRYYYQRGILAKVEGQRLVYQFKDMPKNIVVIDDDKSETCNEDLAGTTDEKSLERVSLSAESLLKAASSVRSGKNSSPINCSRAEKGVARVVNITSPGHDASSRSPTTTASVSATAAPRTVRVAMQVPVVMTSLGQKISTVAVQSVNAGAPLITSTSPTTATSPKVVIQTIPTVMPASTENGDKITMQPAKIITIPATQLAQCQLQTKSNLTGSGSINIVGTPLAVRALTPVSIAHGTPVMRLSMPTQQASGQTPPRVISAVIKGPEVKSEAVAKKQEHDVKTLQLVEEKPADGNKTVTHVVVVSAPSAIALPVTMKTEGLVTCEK
Assay: DAPPL (digital affinity profiling via proximity ligation, sequencing)
Conditions: 10 mM Tris-HCl pH 7.5, 50 mM NaCl, 1 mM DTT, 4% glycerol, room temperature, 30 min; GST-TFs on glutathione beads, 16-mer random dsDNA library, 0.1% …; high values mean tight binding; double strand, one strand shown; scale: fold enrichment (6-mer frequency, TF over GST control)

Sequence	binding signal
TGCGAC	1.19
AGTGGC	1.23
AATGAA	1.2
TTAGGA	0.901
GCTTGT	1.12
GTCCCA	1.02
CAACTT	1.71
GAAACA	1.45
CCTTAA	1.3
CACCCT	1.09
TTCGCC	1.1
TGTACG	1.12
AGTTCT	1.09
CTGTGG	0.804
GTCCAA	0.94
AACGCA	1.02
GTCTTG	0.984
TTTCGG	1.14
GAAAAT	1.17
TCATCG	0.911

Retrieved one by one from above, two records:
Sequence	binding signal
CCTTAA	1.3
AGTTCT	1.09

Next records follow:

Sequence	binding signal
CGCTAA	0.932
TTGAGC	1
CCTTCT	1.6
AAACCG	1.23
TGCAGA	0.92
AAGGCA	1.01
TTGCTT	1.35
CCTAGG	0.922
ATGCTG	1.13
CCGCCG	1.21
GACCAA	0.92
GATGTA	1.35
TCAAGG	1.02
ATACGG	1.44
GGTGTT	1.05
AGCGTC	1.03
AGGCAC	0.814
AGTGCC	1.01
GTCTAA	0.969
CGCCCA	1.01
